# Results are given in words; binding and its absence hold for the method and conditions named. Some entries that bind do so weakly or less than the wild type.
# The chains behind the UniProt entries cited, without tags or fusion partners. Where a name states a change or a piece, a line headed by the entry shows the natural chain unless it says otherwise. Residues count along the entry.
# UniProt P62330: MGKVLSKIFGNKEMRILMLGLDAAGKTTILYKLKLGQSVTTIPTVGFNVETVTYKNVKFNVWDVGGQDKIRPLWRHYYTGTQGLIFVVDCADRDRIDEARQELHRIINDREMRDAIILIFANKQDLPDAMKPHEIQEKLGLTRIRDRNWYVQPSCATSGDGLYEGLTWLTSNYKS
# UniProt P84077: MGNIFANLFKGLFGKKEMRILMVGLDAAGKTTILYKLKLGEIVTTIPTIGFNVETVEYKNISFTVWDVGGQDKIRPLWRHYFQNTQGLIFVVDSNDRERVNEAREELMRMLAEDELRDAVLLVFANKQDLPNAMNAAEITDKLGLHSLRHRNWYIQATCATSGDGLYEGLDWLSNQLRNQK
# UniProt Q7DB50, residues 31-381: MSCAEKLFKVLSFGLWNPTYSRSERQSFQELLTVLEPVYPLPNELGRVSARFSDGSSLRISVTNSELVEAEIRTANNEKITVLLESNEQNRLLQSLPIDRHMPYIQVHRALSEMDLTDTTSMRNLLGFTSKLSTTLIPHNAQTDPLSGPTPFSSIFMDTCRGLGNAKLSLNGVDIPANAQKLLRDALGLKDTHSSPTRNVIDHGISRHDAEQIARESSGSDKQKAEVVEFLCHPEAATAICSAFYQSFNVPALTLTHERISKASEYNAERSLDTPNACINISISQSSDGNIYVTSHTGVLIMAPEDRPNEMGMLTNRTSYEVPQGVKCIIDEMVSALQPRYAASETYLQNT
# Legend:
# [1] = target: recombinant myristoylated Arf6 activated with GTPγS (UniProt P62330); test: pull-down; both purified
# [2] = target: constitutively active GTP-bound myristoylated Arf1-Q71L (UniProt P84077); test: pull-down; both purified
substance,measurement,setting,value
"EspG wild-type, recombinant (effector domain residues 48-398) (from UniProt Q7DB50 31-381) (domain or fragment)",binding,[1],binds
same,binding,[2],binds

# From PMC5081413
